In data set [1] the test system is HEK-293 (human embryonic kidney 293) cells. Put plainly: MTT cytotoxicity assay, HEK-293. The class given is cell-based. The settings on record: SI ratio = IC50/MIC; column head HEK-293. As for the experimental part: (§1) The cytostatic activity of the investigational compounds was determined using a standard MTT-based colorimetric assay for evaluating cell viability. HEK-293 and CCL-1 cells were harvested and seeded (100 µL/well) in 96-well plates at a density of 3 × 10^5. Following a 24 h incubation, the cells were treated with serial dilutions of the tested compounds in the concentration range of 200.0–12.5 µM. Following an exposure time of 72 h, a filter-sterilized MTT substrate solution (5 mg/mL in PBS) was added to each well of the culture plate. A further 1–4 h incubation allowed the formation of purple insoluble precipitates of the formazan dye. The latter was dissolved in an isopropyl alcohol solution containing 5% formic acid for absorbance measurement at 550 nm. The collected absorbance values were blanked against MTT-and isopropanol solution and normalized to the mean value of the untreated control (100% cell viability).
(§2) Semi-logarithmic “dose-response” curves were computed using nonlinear regression in GraphPad Prism® 8.0. The antiproliferative potential of the studied compounds was rated according to the calculated half-maximal inhibitory concentrations (IC50 values).

Data set [2] has as its system CCL-1 mouse fibroblast cell line. Nature of the data set: MTT cytotoxicity assay, CCL-1. Particulars: SI ratio = IC50/MIC; column head CCL-1. The class given is cell-based. The protocol:
as §1, §2
A general note: Tetrazolium dyes change colour on reduction, which living cells bring about.

Turning to `Cc1nnsc1C(=O)N/N=C/c1c(Cl)c2ccccc2oc1=O` [3a, N’-[(E)-(4-chloro-2-oxo-2H-1-benzopyran-3-yl)methylidene]-4-methyl-1,2,3-thiadiazole-5-carbohydrazide], the “SI d HEK-293” value in data set [1] amounted to 130. Moreover, in data set [2], the “SI d CCL-1” value came out at 84.

As to `COc1ccc2c(c1)c(/C=N/NC(=O)c1snnc1C)cn2C` [3b, N’-[(E)-(5-methoxy-1-methyl-1H-indol-3-yl)methylidene]-4-methyl-1,2,3-thiadiazole-5-carbohydrazide], the “SI d HEK-293” value in data set [1] amounted to 1244. For the same compound, in data set [2], the “SI d CCL-1” value worked out at 2487.

With `Cc1nnsc1C(=O)N/N=C/c1c[nH]c2ccc(OCc3ccccc3)cc12` [3c, N’-((E)-[5-(benzyloxy)-1H-indol-3-yl]methylidene)-4-methyl-1,2,3-thiadiazole-5-carbohydrazide], the “SI d HEK-293” value in data set [1] was determined as 4093. Further, the “SI d CCL-1” value in data set [2] came out at 2242.

Regarding `COc1cc(/C=N/NC(=O)c2snnc2C)ccc1O` [3d, N’-[(E)-(4-hydroxy-3-methoxyphenyl)methylidene]-4-methyl-1,2,3-thiadiazole-5-carbohydrazide], the “SI d HEK-293” value in data set [1] was determined as 2979. Moreover, the “SI d CCL-1” value in data set [2] was 3516.

Turning to `O=c1oc2ccccc2c(Cl)c1/C=N/NS(=O)(=O)c1ccccc1` [5a, N’-[(E)-(4-chloro-2-oxo-2H-1-benzopyran-3-yl)-methylidene]benzenesulfonohydrazide], in data set [1], the “SI d HEK-293” value was 463. The “SI d CCL-1” value in data set [2] worked out at 267.

In the case of `COc1ccc2c(c1)c(/C=N/NS(=O)(=O)c1ccccc1)cn2C` [5b, N’-[(E)-(5-methoxy-1-methyl-1H-indol-3-yl)methylidene]benzenesulfonohydrazide], the “SI d HEK-293” value in data set [1] came to 82. For the same compound, the “SI d CCL-1” value in data set [2] was 14.

With `O=S(=O)(N/N=C/c1c[nH]c2ccc(OCc3ccccc3)cc12)c1ccccc1` [5c], in data set [1], the “SI d HEK-293” value was determined as 95. The “SI d CCL-1” value in data set [2] stood at 945.

For the compound `O=S(=O)(N/N=C/c1c[nH]c2ccc(Cl)cc12)c1ccccc1` [5d, N’-[(E)-(5-chloro-1H-indol-3-yl)methylidene]benzenesulfonohydrazide], the “SI d HEK-293” value in data set [1] is on record as 97. Moreover, in data set [2], the “SI d CCL-1” value stood at 11.

Regarding `COc1ccc2[nH]cc(/C=N/NS(=O)(=O)c3ccccc3)c2c1` [5e, N’-[(E)-(5-methoxy-1H-indol-3-yl)methylidene]benzenesulfonohydrazide], the “SI d HEK-293” value in data set [1] was determined as 95. The “SI d CCL-1” value in data set [2] stood at 31.

Regarding `O=[N+]([O-])c1ccccc1/C=N/NS(=O)(=O)c1ccccc1` [5f, N’-[(E)-(2-nitrophenyl)methylidene]benzenesulfonohydrazide], the “SI d HEK-293” value in data set [1] was determined as 327. Besides, in data set [2], the “SI d CCL-1” value is on record as 237.

As for `O=[N+]([O-])c1ccc(/C=N/NS(=O)(=O)c2ccccc2)cc1` [5g, N’-[(E)-(4-nitrophenyl)methylidene]benzenesulfonohydrazide], the “SI d HEK-293” value in data set [1] amounted to 1819. For the same compound, the “SI d CCL-1” value in data set [2] is recorded as 1812.

Turning to `O=S(=O)(N/N=C/c1ccc(Cl)cc1)c1ccccc1` [5i, N’-[(E)-(4-chlorophenyl)methylidene]benzenesulfonohydrazide], in data set [1], the “SI d HEK-293” value is 679. Besides, the “SI d CCL-1” value in data set [2] is 892.

As to `COc1ccc(/C=N/NS(=O)(=O)c2ccccc2)cc1OC` [5j, N’-[(E)-(3,4-dimethoxyphenyl)methylidene]benzenesulfonohydrazide], the “SI d HEK-293” value in data set [1] is recorded as 260. Moreover, in data set [2], the “SI d CCL-1” value is 146.

As to `O=S(=O)(N/N=C/C=C/c1ccccc1)c1ccccc1` [5k, N’-[(1E,2E)-3-phenylprop-2-en-1-ylidene]benzenesulfonohydrazid], in data set [1], the “SI d HEK-293” value is 2216. In data set [2], the “SI d CCL-1” value is recorded as 3380.

Take “N’-[(E)-(3-hydroxy-4-methoxyphenyl)methylidene]benzenesulfonohydrazide [5h]”: the “SI d HEK-293” value in data set [1] is listed as 696. The “SI d CCL-1” value in data set [2] stood at 469.

Source of the values: PMC9137698, “Development of New Antimycobacterial Sulfonyl Hydrazones and 4-Methyl-1,2,3-thiadiazole-Based Hydrazone Derivatives” (Antibiotics, 2022).
